Measurements published in PubChem BioAssay AID2685 (National Center for Advancing Translational Sciences (NCATS), 2010).
Some of the results follow. The main result of the screen is listed elsewhere. These columns were measured beside it and carry no call. The list favours compounds with an active or inconclusive main result. The note in brackets gives the kind of curve behind each potency; many fits are weak.

Assay: qHTS Assay for Lipid Storage Modulators in Drosophila S3 Cells;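 on cell number change: cells counted by Cell Tracker Red CMTPX staining in the red channel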
Conditions: BODIPY lipid droplet fluorescence, 18-24 h; for cell number change: measured here: cell count max response, cells fed with added oleic acid
Outline: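 Drosophila S3 cells loaded with oleic acid (400 uM, as added) and compounds at several concentrations; lipid droplets imaged by 488-nm laser-scanning cytometry, 500–530 nm intensity and object ratio to cell channel. Percent activity normalized to 20 uM Triacsin C.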

[1] = measured here: lipid fluorescence (Fed channel) AC50, cells fed with added oleic acid
[2] = measured here: cell number channel AC50, cells fed with added oleic acid

Compound | cell number change | AC50 [1] | AC50 [2]
COc1ccc(NC(=O)Cc2nnc(SCC(=O)Nc3cc(C)ccc3OC)n2C)cc1 | 4.04% | 0.291 µM [rising, full curve, poor fit] | 
O=C(Nc1ccccc1NC(=O)c1c(F)cccc1F)c1c(F)cccc1F | -14.8% |  | 
Cc1ccc(S(=O)(=O)N2CCC(C(=O)OCC(=O)N(CCC#N)c3ccc(F)cc3)CC2)cc1C | 2.24% |  | 
COc1ccc(NC(=O)CCOc2ccccc2C)cc1S(=O)(=O)N1CCCCC1 | -30.6% | 0.411 µM [falling, full curve] | 18.4 µM [falling, single point]
O=C(CN1CCN(Cc2ccccc2Cl)C1=O)NCc1ccccn1 | -25.5% | 23.1 µM [falling, single point] | 
CN(CCC#N)C(=O)Cn1nc(Cc2ccncc2)c2ccccc2c1=O | 7.83% |  | 
CC(C)C(NS(=O)(=O)/C=C/c1ccccc1)C(=O)NCc1ccc(F)cc1 (configuration not stated) | 6.67% | 0.206 µM [rising, single point] | 
O=C1NC(=O)C(c2ccc(F)cc2)N1 (configuration not stated) |  | 0.0058 µM [falling, full curve, poor fit] | 
C=C(C)Cn1c(SCC(=O)O)nnc1-c1ccccc1 | -48.2% |  | 8.2 µM [falling, partial curve]
O=C1CSc2ccc(C(=O)NCCC3=CCCCC3)cc2N1 | 4.79% | 9.2 µM [rising, partial curve] | 
COc1ccc(N2CCN(C(=O)c3ccc(NC(=O)C4=CSCCO4)cc3)CC2)cc1 | 4.78% |  | 
CC(=O)c1cccc(N=Nc2c(C)[nH]c3ccccc23)c1 | 78% | 0.116 µM [rising, partial curve, poor fit] | 29.1 µM [rising, single point]
O=C(CCc1nc2ccccc2c(=O)[nH]1)N1CCN(C/C=C/c2ccccc2)CC1 | -29.1% | 18.4 µM [falling, single point] | 
Cc1cccc(C)c1N1C(=O)CCC(C)(C)C1=O | 19.4% | 0.116 µM [falling, partial curve, poor fit] | 
Cc1nn(Cc2ccc([N+](=O)[O-])cc2)c(=O)n1-c1cccc(Cl)c1 | -56.1% |  | 
CN1C(=O)N(CC(=O)Nc2sccc2C(N)=O)C(=O)C12CCCCC2 | 7.63% | 2.59 µM [rising, partial curve] | 
COc1nc(C)nc2c1ccc1ccccc12 | -35.6% | 16.4 µM [falling, partial curve, poor fit] | 10.3 µM [falling, partial curve]
O=C(CN1C(=O)c2ccccc2C1=O)NCC(=O)OCC(=O)c1ccc(Br)cc1 | -15.6% |  | 
O=C(CSc1nnc(C2CC2)n1C1CC1)c1ccccc1F | -43.7% | 16.4 µM [falling, single point] | 18.4 µM [falling, single point]
COC(CNC(=O)c1c[nH]c2ccc(S(=O)(=O)N3CCOCC3)cc2c1=O)OC | -4.03% |  | 
CC1CCCN(CCCCOc2cccc(Br)c2)C1 (configuration not stated) | -8.16% | 29.1 µM [rising, single point] | 

Compound | cell number change | AC50 [1] | AC50 [2]
C/C(=N\Nc1ccc([N+](=O)[O-])cc1[N+](=O)[O-])c1cccnc1 | -43.6% | 23.1 µM [falling, single point] | 1.46 µM [falling, partial curve]
CCOc1ccc(NC(=O)NN2C(C)CCCC2C)cc1 (configuration not stated) | 52.1% | 6.51 µM [rising, partial curve, poor fit] | 6.51 µM [rising, partial curve, poor fit]
CCOc1ccc(C(=O)Nc2ccccc2C#N)cc1[N+](=O)[O-] |  | 29.1 µM [rising, single point] | 
Cc1ccc(C(C)C)c(OCCn2ccnc2C)c1 | 15.8% |  | 
Cn1c(=O)n(C)c2cc(NC(=O)c3ccccc3[N+](=O)[O-])c(Br)cc21 | 12.1% | 2.31 µM [rising, partial curve, poor fit] | 
Cc1nn(-c2ccccc2)c(N)c1N=Nc1ccc2ccccc2c1 | -55.1% | 2.91 µM [rising, single point] | 29.1 µM [falling, single point]
O=[N+]([O-])c1ccccc1Nc1cccnc1 | -12.2% | 20.6 µM [rising, single point] | 
CCOc1ccc(CC(=O)N2CCN=C2SC)cc1 | -7.08% |  | 
S=c1[nH]nc(-c2ccc(Cl)cc2)n1-c1ccc(Cl)cc1 | -20.2% | 3.26 µM [rising, full curve] | 
COCCN(C(=O)COC(=O)c1ccco1)c1c(N)n(Cc2ccccc2)c(=O)[nH]c1=O | -28% | 29.1 µM [falling, single point] | 
CCOC(=O)C1CCN(C(=O)CCS(=O)(=O)c2ccc3c(c2)n(C)c(=O)c(=O)n3C)CC1 | 9.8% |  | 
COc1ccccc1N(CC(=O)NCc1ccccc1)S(C)(=O)=O | -163% | 0.164 µM [falling, full curve, poor fit] | 29.1 µM [falling, single point]
O=C(c1ccc(S(=O)(=O)Nc2ccccc2F)cc1)N1CCCCCC1 | -2.93% |  | 
CC(C)N(C(=O)CN1CCN(C(=O)C2COc3ccccc3O2)CC1)C(C)C (configuration not stated) | -57.8% | 29.1 µM [falling, partial curve, poor fit] | 20.6 µM [falling, partial curve, poor fit]
Cc1ccc(SCc2ccc(C(=O)N3CCCCC3)cc2)cc1 | -7.64% |  | 
CC(C)NS(=O)(=O)c1ccc(OCC(=O)N2CCCC2)c(Cl)c1 | 21% | 29.1 µM [rising, single point] | 
CC1CN(c2nc3ccccc3cc2-c2ccccc2)CC(C)O1 (configuration not stated) | 40% |  | 3.26 µM [rising, partial curve]
c1ccc2c(c1)ncn2CCCOc1ccc2c(c1)CCC2 | -157% |  | 2.91 µM [rising, single point]
Cc1cc(Cl)ccc1OCC(=O)OC(C)C(=O)NC(N)=O (configuration not stated) | -10.6% |  | 
O=C(NC(=S)NC1CCCC1)c1ccccc1 | 14.1% | 0.731 µM [rising, full curve, poor fit] | 
COc1cc(NC(=S)Nc2ccc(N(C)C(C)=O)cc2)cc(OC)c1 | -42.3% |  | 

Just AC50 [1] and AC50 [2], for 3 of the compounds above:
Compound,AC50 [1],AC50 [2]
O=[N+]([O-])c1ccccc1Nc1cccnc1,"20.6 µM [rising, single point]",
COCCN(C(=O)COC(=O)c1ccco1)c1c(N)n(Cc2ccccc2)c(=O)[nH]c1=O,"29.1 µM [falling, single point]",
CC1CN(c2nc3ccccc3cc2-c2ccccc2)CC(C)O1 (configuration not stated),,"3.26 µM [rising, partial curve]"

The list goes on:

Compound | cell number change | AC50 [1] | AC50 [2]
N#C/C(=C/c1ccc(-c2ccc(C(=O)O)c(Cl)c2)o1)C(=O)NCC1CCCO1 (configuration not stated) |  | 0.461 µM [rising, partial curve, poor fit] | 2.06 µM [rising, partial curve]
Cc1csc(SCC(=O)O)n1 | 13.5% |  | 0.58 µM [falling, single point]
COc1ccc(-c2coc3cc(OC4OC(CO)C(O)C(O)C4O)ccc3c2=O)cc1 (configuration not stated) | -20.2% | 25.9 µM [falling, single point] | 
Cn1c(=O)c2c(nc(SCCN3CCCCC3)n2C)n(C)c1=O |  | 29.1 µM [rising, single point] | 
COc1ccc(CCN2C(=O)c3cccnc3C2=O)cc1OC | 1.18% | 0.164 µM [falling, full curve] | 
COc1cc(C(=O)Nc2nnc(CC(C)C)s2)c([N+](=O)[O-])cc1OC |  | 8.2 µM [falling, partial curve] | 0.651 µM [falling, partial curve]
CNC(=S)/N=C/NOCc1c(Cl)cccc1Cl | -64.8% | 1.84 µM [falling, partial curve] | 20.6 µM [falling, single point]
COC(=O)CCC(=O)N1CN2CN(C(=O)CCC(=O)OC)CC([N+](=O)[O-])(C2)C1 | 28% | 2.91 µM [rising, single point] | 
O=C(Nc1ccccc1[N+](=O)[O-])c1cc(S(=O)(=O)Nc2ccccn2)ccc1Cl | 20.5% |  | 
O=C(CSc1nnc2ccc(-c3ccncc3)nn12)N1CCCCC1 | -39.6% |  | 32.6 µM [falling, single point]
COc1ccc(Cn2c(C)nnc2-c2cnn(C)c2N)cc1OC | 57.9% | 29.1 µM [rising, partial curve, poor fit] | 29.1 µM [rising, single point]
CCc1nc2sc3c(c2c(=O)o1)CCCC3 | 17.6% | 10.3 µM [rising, partial curve] | 
Cc1cc2ccccn2c1C(=O)c1nc(NCc2ccccc2)ncc1Cl | 74.9% |  | 0.00651 µM [rising, full curve, poor fit]
COc1ccccc1NC(=O)N1CCN(c2ccnc3cc(Cl)ccc23)CC1 | -7.38% | 29.1 µM [falling, single point] | 
CCN(CC(=O)Nc1cc(C)on1)CC(=O)Nc1ccccc1C(F)(F)F | -25% | 14.6 µM [falling, partial curve] | 0.82 µM [falling, single point]
CCCCNC(=O)Nc1ccon1 | -1.61% |  | 0.326 µM [falling, full curve, poor fit]
COCCC1CCCCN1C(=O)c1cc(COc2cccc(C(C)=O)c2)on1 (configuration not stated) | -34.3% |  | 16.4 µM [falling, single point]
CCC1CCCCN1C(=O)Cn1c(=O)n(CCCC(=O)NCc2ccco2)c(=O)c2sccc21 (configuration not stated) | 10.1% |  | 
O=C(Nc1ccc(N2CCN(C(=O)c3ccc(Cl)cc3)CC2)cc1)c1ccc(Br)o1 | -23% | 16.4 µM [falling, partial curve, poor fit] | 
Cc1nc(NC(=O)/C=C/c2ccc(F)cc2)sc1C(=O)N(C)C | 1.8% | 4.61 µM [rising, full curve, poor fit] | 
